The text below walks through data of publication PMC8096250.

The chains behind the UniProt entries cited, without tags or fusion partners. Where a name states a change or a piece, a line headed by the entry shows the natural chain unless it says otherwise.
UniProt P32495: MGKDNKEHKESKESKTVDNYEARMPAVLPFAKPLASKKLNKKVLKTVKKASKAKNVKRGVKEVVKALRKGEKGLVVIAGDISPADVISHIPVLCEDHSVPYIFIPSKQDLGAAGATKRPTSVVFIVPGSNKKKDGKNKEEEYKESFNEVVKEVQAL

This series deals with Nhp2 K48-Cy3 S82W,K48PrK (Saccharomyces cerevisiae) (UniProt P32495). The experiment in a line: smFRET. The note with it: omission of NCG; 5-amino-modified U (apical stem labeling site, U61); smFRET with immobilized 3'-biotin RNA; recombinant protein; protein details: His tag implied (Ni-NTA); label: Cy5, 3'-biotin.

Construct, isoform or probe ends are uncertain for at least one entry. A negative result means that nothing was seen under these conditions.

As to “GGGACUGCAAAAGAAGCGGCGAGGCAGCCCACAUCAAGUGGAACUACACAGACUUCCUUGUCGCGAUACUACGGUCCCAAGAGCAAUCCU [H5-Cy5 (snR81 5' hairpin)]”, the binding result is “no binding”.
